In paper PMC12061867 one finds binding data, which are given here for 1 substance.

By UniProt entry, the sequences of proteins in these tests, tags left out. Where a name states a change or a piece, a line headed by the entry shows the natural chain unless it says otherwise.
UniProt H0V563: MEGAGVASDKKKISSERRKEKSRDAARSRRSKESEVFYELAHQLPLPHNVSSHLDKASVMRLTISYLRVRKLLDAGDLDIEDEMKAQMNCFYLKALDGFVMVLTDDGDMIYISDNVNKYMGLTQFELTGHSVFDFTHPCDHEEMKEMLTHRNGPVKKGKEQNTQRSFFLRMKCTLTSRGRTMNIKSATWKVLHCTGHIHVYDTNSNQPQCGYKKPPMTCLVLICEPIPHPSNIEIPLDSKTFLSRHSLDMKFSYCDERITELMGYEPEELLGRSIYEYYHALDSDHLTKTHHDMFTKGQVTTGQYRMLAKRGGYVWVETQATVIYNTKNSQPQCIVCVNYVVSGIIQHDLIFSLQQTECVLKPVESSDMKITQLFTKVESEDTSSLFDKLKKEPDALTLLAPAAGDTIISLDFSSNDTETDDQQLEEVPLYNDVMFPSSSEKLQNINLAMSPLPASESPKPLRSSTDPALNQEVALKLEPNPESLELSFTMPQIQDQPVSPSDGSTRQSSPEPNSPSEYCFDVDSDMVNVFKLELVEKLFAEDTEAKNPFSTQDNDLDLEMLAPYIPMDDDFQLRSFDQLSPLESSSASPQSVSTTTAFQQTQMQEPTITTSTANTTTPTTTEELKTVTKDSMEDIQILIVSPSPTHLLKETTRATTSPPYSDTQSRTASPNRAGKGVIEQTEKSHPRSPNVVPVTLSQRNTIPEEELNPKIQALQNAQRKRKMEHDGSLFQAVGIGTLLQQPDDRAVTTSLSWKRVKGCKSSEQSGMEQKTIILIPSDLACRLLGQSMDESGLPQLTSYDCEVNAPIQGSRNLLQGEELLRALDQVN
UniProt H0VQG5: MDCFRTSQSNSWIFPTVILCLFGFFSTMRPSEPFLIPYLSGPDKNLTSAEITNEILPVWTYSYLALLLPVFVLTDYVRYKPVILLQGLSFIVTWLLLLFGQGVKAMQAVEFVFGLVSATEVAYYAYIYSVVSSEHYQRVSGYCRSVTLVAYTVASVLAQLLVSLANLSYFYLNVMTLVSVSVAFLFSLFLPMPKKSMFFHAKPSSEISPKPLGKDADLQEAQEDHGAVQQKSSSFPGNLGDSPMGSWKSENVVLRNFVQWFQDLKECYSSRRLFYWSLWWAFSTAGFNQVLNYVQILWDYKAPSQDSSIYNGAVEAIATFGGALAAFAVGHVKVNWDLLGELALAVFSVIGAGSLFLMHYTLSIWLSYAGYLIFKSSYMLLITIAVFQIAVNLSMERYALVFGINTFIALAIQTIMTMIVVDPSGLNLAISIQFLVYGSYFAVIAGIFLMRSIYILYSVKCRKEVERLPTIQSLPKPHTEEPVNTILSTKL

This test deals with HIF-1α (guinea pig (endogenous in choroidal cells)) (UniProt H0V563). The test can be described thus: co-IP; fresh guinea pig choroidal cells lysed in RIPA; pre-cleared with protein A and G magnetic beads; antibody to the target protein (1-5 ug) on beads, non-specific IgG as control; 4°C; washes with IP lysis buffer; SDS-PAGE and blot.

These are yes or no findings as the source states them, for the method shown. In cells and extracts the contact can be indirect. Binding can be weak; no strength is given.

On to SLC19A3 (from UniProt H0VQG5), for which the binding result is recorded as “binds”.
